# Data taken from US9175038B2, “Peptide mimetic ligands of polo-like kinase 1 polo box domain and methods of use” (The United States of America, as represented by the …, priority 2009, dated 2015).
# At least one peptide structure holds a part that was inferred or is arguable (an end, a ring closure or a residue).
# Target: T1, Plk2 PBD (Homo sapiens, UniProt Q9NYY3)
# T1 construct: The PBD of human Plk2 (residues 373 to 685) was cloned as a MBP fusion; MBP (cleaved yes); made in house; host or cells: bacterial cells
# T1 sequence (Q9NYY3 373-685): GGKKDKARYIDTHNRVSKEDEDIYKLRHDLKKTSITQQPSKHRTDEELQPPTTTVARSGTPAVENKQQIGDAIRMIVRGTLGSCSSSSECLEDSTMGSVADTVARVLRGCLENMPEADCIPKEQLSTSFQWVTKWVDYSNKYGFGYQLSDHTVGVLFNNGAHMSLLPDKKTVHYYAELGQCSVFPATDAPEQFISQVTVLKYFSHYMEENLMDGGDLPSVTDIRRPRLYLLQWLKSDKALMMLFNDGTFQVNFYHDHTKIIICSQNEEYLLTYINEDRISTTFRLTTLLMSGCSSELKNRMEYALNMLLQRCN
# Experiment: Isothermal titration calorimetry with recombinant Plk2 PBD
# Details: ITC, peptide titrated into Plk2 PBD, no saturable binding
smiles,measurement,value
"CSCC[C@H](N)C(=O)N[C@@H](CCC(N)=O)C(=O)N[C@@H](CO)C(=O)N[C@H](C(=O)N1CCC[C@H]1C(=O)N[C@@H](CC(C)C)C(N)=O)[C@@H](C)OP(=O)(O)O [MQSpTPL, reference compound]",initial heats of interaction,-1.68 kcal/mol
